Measurements reported in article PMC3667747.

Legend:
[1] = biological target: T1, VPS45D129N-GFP (VPS45-GFP carrying the ben2 mutant sequence) (Arabidopsis thaliana) (UniProt O49048); assay: co-IP; VPS45-GFP or VPS45D129N-GFP immunoprecipitated with anti-GFP antibody (micro-MACS GFP-tagged protein isolation kit) from detergent extracts of 12 day-old A. thaliana plantlets (0.5 g); immunoblot with anti-SYP4 and anti-GFP
T1 sequence: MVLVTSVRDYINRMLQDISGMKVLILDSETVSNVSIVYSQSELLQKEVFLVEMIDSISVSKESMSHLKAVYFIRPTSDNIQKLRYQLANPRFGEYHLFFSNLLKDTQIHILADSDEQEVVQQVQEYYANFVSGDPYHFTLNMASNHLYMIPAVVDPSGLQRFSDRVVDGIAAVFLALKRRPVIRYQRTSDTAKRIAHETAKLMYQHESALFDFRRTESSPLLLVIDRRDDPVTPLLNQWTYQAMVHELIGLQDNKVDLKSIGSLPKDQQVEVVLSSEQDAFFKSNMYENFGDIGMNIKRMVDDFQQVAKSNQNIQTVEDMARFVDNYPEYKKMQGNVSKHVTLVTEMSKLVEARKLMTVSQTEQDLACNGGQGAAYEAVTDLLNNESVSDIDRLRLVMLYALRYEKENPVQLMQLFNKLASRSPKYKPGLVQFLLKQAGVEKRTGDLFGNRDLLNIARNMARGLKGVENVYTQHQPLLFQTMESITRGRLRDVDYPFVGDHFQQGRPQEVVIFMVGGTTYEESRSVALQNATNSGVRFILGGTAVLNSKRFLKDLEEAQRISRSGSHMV

[2] = biological target: T2, VPS45-GFP (BEN2 / AtVPS45, VACUOLAR PROTEIN SORTING 45, wild type, fused to GFP) (Arabidopsis thaliana) (UniProt O49048); assay: as above
T2 sequence: T1 sequence with N129D

Q: How did the binding [1] turn out when TGN-localized Qa-SNARE SYP4 was run?
A: no binding

Q: And the binding [2]?
A: binds

Where a chain is given by its changes, count along the chain named. No constants are given. Whether binding was seen depends on the method and setting. In cells and extracts the contact can be indirect. For some assays here: Binding can be weak; no strength is given. Sequences can lack the tags named with a protein.
